# Test results from PubChem BioAssay (EPA / NIEHS).
# Sequences of proteins named here, by UniProt entry; tags and fusion partners are left off.
# UniProt P49884, whole entry, looked up: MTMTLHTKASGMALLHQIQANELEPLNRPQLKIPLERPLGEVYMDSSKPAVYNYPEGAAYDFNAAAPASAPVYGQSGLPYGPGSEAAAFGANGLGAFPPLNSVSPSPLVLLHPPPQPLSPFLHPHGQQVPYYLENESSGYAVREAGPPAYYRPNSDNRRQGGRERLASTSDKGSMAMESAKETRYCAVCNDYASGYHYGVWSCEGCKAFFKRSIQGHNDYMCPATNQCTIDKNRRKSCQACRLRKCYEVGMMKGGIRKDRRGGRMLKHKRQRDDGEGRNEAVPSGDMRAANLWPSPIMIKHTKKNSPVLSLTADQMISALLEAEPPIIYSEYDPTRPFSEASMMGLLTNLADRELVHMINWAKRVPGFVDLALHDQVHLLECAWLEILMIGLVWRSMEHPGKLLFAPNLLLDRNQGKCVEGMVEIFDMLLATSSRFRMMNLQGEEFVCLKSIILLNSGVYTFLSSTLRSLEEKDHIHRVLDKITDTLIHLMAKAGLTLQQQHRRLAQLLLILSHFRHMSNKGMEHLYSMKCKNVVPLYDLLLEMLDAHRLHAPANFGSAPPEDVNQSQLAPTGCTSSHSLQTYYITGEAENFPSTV
# “And” between values parts separate entries of the source, which are not always exact repeats. Equal entries are not always repeated. The inconclusive results got no clear call from the source; some entries with a clear call stand among them for comparison. Where the call is inconclusive, the potency comes from a doubtful curve fit. The source made the active and inactive calls. Rule for the calls: active = hit-call score of the fitted dose curve at least 0.9, where 1 is the maximum; inconclusive = response in the unintended direction; inactive = score below 0.9.
# Biological target: bovine Estrogen Receptor (ER), ESR1 (gene 407238) (UniProt P49884)
# Assay: NVS_NR_bER: NovaScreen (NVS) Nuclear Receptor Binding Assay for bovine Estrogen Receptor (ER) (AID 2283345);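 note: actives lower the bound radioligand count which means they displace the ER ligand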
# Method in brief: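 Cell-free radioligand binding with bovine uterine membrane extracts, read 18 hours after dosing by scintillation counting. Loss of signal versus DMSO baseline indicates displacement. Primary screen run in duplicate at 25 uM, actives followed in concentration series.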
Compound,AC50,outcome
CC1COc2ccccc2N1C(=O)C(Cl)Cl (configuration not stated),active: 588 nM,
CCC(C)(C)C1CCC(O)CC1 (configuration not stated),active: 16.4 µM and active: 12.9 µM and inconclusive: 348 nM,
C=CC(C)(CCC=C(C)C)OC(C)=O (configuration not stated),active: 17100 nM,
CCCC(=O)c1cc(O)c(O)cc1O,inconclusive: 25000 nM,
CCCCCCCCn1sc(Cl)c(Cl)c1=O,active: 12700 nM,
Nc1cccc(S(=O)(=O)c2cccc(N)c2)c1,,inactive
c1ccc2c(c1)ccc1cc3c(ccc4ccccc43)cc12,inconclusive: 10.8 nM,
OC1CCC(C2CCCCC2)CC1 (configuration not stated),inconclusive: 94.3 nM,
CCCCCCCC[N+](C)(CCCCCCCC)CCCCCCCC,inconclusive: 683 nM,
CCOC(N)=O,inconclusive: 148 nM,
O=C(c1ccccc1)C1CCCCC1,inconclusive: 47.3 nM,
c1ccc2c(c1)ccc1ncccc12,inconclusive: 166 nM,
CCc1cc(Cc2cc(CC)c(N)c(CC)c2)cc(CC)c1N,,inactive
CCCCCCC(C)O (configuration not stated),inconclusive: 25000 nM,
C/C=C\C/C=C/CCCCCCCCOC(C)=O,inconclusive: 95.4 nM,
COc1ccc(S(=O)(=O)N2C(=O)[C@@](c3ccccc3OC)(N3C[C@H](O)C[C@H]3C(=O)N(C)C)c3cc(Cl)ccc32)c(OC)c1,,inactive
CC(C)(C)c1cc(CCC(=O)OCC(COC(=O)CCc2cc(C(C)(C)C)c(O)c(C(C)(C)C)c2)(COC(=O)CCc2cc(C(C)(C)C)c(O)c(C(C)(C)C)c2)COC(=O)CCc2cc(C(C)(C)C)c(O)c(C(C)(C)C)c2)cc(C(C)(C)C)c1O,inconclusive: 11100 nM,

# In a second layout: results already given.
Compound	AC50	outcome
c1ccc2c(c1)ccc1ncccc12	inconclusive: 166 nM	
CCc1cc(Cc2cc(CC)c(N)c(CC)c2)cc(CC)c1N		inactive
